PubChem BioAssay AID1508588 – Peter MacCallum Cancer Centre, 2020
Test: 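Which gene losses make BRAF-mutant melanoma cells more responsive to vemurafenib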 (primary screen). Cells: human WM266.4 melanoma cells (BRAF V600 mutant). Reagents: siRNA pool against human genes, 40 nM. Duration: 96 h from transfection to read-out. Challenge: vemurafenib 300 nM (about IC25), added 48 h after transfection, for 48 h; comparison arm got DMSO vehicle only. Read-out: 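Cell gain (DAPI nuclei at end minus before drug, mean of two replicates) and medium lactate by absorbance per cell, both as ratio to non-targeting siRNA, also grouped into fold-change classes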. Reading the numbers: cell gain with vemurafenib: higher = more cell gain than with non-targeting siRNA; lactate per cell with vemurafenib: higher = more lactate made per cell. Active means: 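Enhancement is called by pairing each knock-down's vehicle-arm and drug-arm fold-change classes for viability or glycolysis; which class combinations qualify is not given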. Calls: active = enhances vemurafenib effect; inactive = no enhancement seen.
The whole screen tested about 18,000 reagents; this is a random part of them. Over the whole deposit, 790 (4.4%) were called active. 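Calls rest on a combination of fold-change classes in drug and vehicle arms, not all shown here.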 Unmarked entries are inactive. A reagent listed more than once was tested more than once; the source does not tell the runs apart.

gene symbol,PubChem SID,cell gain with vemurafenib,lactate per cell with vemurafenib
AP4S1,SID134320180,0.13,1.41
ALAD,SID152154558,0.73,0.74
CLEC1B,SID135624129,0.63,1.23
DIRAS1,SID152151711,0.56,1.7
TRIM5,SID134312222,0.93,1.13
KRTAP5-3,SID135625272,0.53,0.38
BOLA1,SID152150928,0.61,1.04
GDF15,SID152153827,0.37,0.73
RNF217,SID134312268,0.89,0.9
PTGFR,SID135621057,1.03,0.6
CNTF,SID134315483,0.75,0.99
MTFR2,SID152152261,-0.17,1.48
C6orf136,SID135623146,0.78,1.25
GJA9,SID152154764,0.33,1.55
TAPBPL,SID152148117,0.53,1.17
KRTAP10-8,SID134329140,0.37,2.37
KLRA1P,SID152156587,0.66,0.45
TRAF3IP2,SID134310388,0.11,2.4
AK4,SID134329820,0.96,0.51
AK4,SID152149659,0.81 (active),0.46
YPEL2,SID135624944,0.78,0.84
SCAF8,SID135623996,1.02,0.47
PHYH,SID135622280,0.83,0.65
HYAL2,SID134317901,1.01,0.52
SLC45A1,SID152150672,0.78,1.07
SPATA1,SID135622659,0.52,0.99
NLRP9,SID134323057,0.33,1.03
NECAB2,SID134322767,0.44,1.58
OR5F1,SID152152192,0.68,1.17
SYT6,SID152148656,1.07,0.51
DHX40,SID134322569,0.58,1.12
CUBN,SID135622073,0.8,0.84

Continued (6 carried over from the part before).
gene symbol,PubChem SID,cell gain with vemurafenib,lactate per cell with vemurafenib
NLRP9,SID134323057,0.33,1.03
NECAB2,SID134322767,0.44,1.58
OR5F1,SID152152192,0.68,1.17
SYT6,SID152148656,1.07,0.51
DHX40,SID134322569,0.58,1.12
CUBN,SID135622073,0.8,0.84
GADD45G,SID134310141,0.51,0.85
SPEF1,SID152147533,0.34,1.56
NOD1,SID134310435,0.9,1.02
KANK4,SID152148890,0.24,1.92
RGS11,SID134314166,0.53,0.5
IMPA2,SID134313225,0.48,1.75
LGI2,SID134321058,0.25,1.33
MANF,SID152147539,0.23 (active),0.7
NYX,SID134318341,0.2,2.19
XKR5,SID152153375,1.07,0.6
TRAPPC13,SID152150531,0.77,0.91
LSM3,SID135623947,0.62,1.34
CRTAM,SID152155115,1.02 (active),0.08
DUSP12,SID135621462,0.77,0.28
PCDHA4,SID134317489,0.93,0.2
CCR7,SID135620993,1.09,0.52
ATAD5,SID152154476,0.81,0.79
FKRP,SID135623682,0.29,1.71
GRIK1,SID135621159,0.49,0.39
SLC25A44,SID152156475,0.36,1.52
UBE2B,SID134314622,0.54,0.98
VTI1B,SID134323887,0.9,1.03
PLCL2,SID152150810,0.79,1.42
OR52B4,SID152154318,0.02,1.79
SLC16A1,SID152155314,0.64,1.25
VTN,SID152155146,0.37,1.7
ULK4,SID152148607,0.52,0.68
ABCD3,SID152155437,0.95,0.44
TACC1,SID135620948,1.08,1.1
EIF2S3,SID135623264,0.18,1.38
KAT6A,SID152154772,0.65,0.86
RNF133,SID134312276,0.93,0.84
RNF133,SID134312276,0.96,0.86
H3C11,SID134315789,0.38,1.69
SLC44A1,SID152150108,0.29,1.18
ARID3C,SID152149809,0.6,0.54
SLC61A1,SID152153765,0.38,1.42
EFHB,SID152151168,0.32,1.48
METAP1D,SID134329492,0.17,0.65
CREBL2,SID134315595,0.44,0.68
ARFIP2,SID134317070,0.61,0.62
TK2,SID152153963,0.71,1.31
CLPSL2,SID152154021,0.44,1.35
LDLR,SID134315434,0.25,0.7
SNAPC4,SID152152875,0.12,0.94
EZR,SID152149358,0.47,0.7
FAM78A,SID152152747,-0.06,2.17
GPD2,SID152152999,0.47,0.22
PTPA,SID135620957,0.88,1.38
TMEM80,SID152151365,0.61,1.17
CRIP2,SID134310775,0.56 (active),0.42
KLHDC10,SID152150206,0.55,0.41
